Reference: publication PMC11233548, “Identification of an H-Ras nanocluster disrupting peptide” (Communications Biology, 2024)
Results are given in words; binding and its absence hold for the method and conditions named. Binding seen in cells or lysates may run through a third protein. Some entries that bind do so weakly or less than the wild type.

T1: L5UR-SNAP (UniProt P15814)
T1 sequence: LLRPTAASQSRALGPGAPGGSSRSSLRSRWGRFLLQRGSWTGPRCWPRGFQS


Molecular target: T1, L5UR-SNAP
Assay: pull-down; HEK293-EBNA cells co-transfected with hGal1 and L5UR-SNAP, mutL5UR-SNAP or SNAP; cleared lysate with SNAP-capture magnetic beads 2 h at room temperature; washes with 150 mM NaCl, 0.5% NP-40; immunoblot

binding | Binder
binds | RASSF7 (HEK lysate) (protein, UniProt Q02833 1-373) MLLGLAAMELKVWVDGIQRVVCGVSEQTTCQEVVIALAQAIGQTGRFVLVQRLREKERQLLPQECPVGAQATCGQFASDVQFVLRRTGPSLAGRPSSDSCPPPERCLIRASLPVKPRAALGCEPRKTLTPEPAPSLSRPGPAAPVTPTPGCCTDLRGLELRVQRNAEELGHEAFWEQELRREQAREREGQARLQALSAATAEHAARLQALDAQARALEAELQLAAEAPGPPSPMASATERLHQDLAVQERQSAEVQGSLALVSRALEAAERALQAQAQELEELNRELRQCNLQQFIQQTGAALPPPPRPDRGPPGTQGPLPPAREESLLGAPSESHAGAQPRPRGGPHDAELLEVAAAPAPEWCPLAAQPQAL
binds | ASPP2 (HEK lysate) (protein, UniProt Q13625 1-1128) MMPMFLTVYLSNNEQHFTEVPVTPETICRDVVDLCKEPGESDCHLAEVWCGSERPVADNERMFDVLQRFGSQRNEVRFFLRHERPPGRDIVSGPRSQDPSLKRNGVKVPGEYRRKENGVNSPRMDLTLAELQEMASRQQQQIEAQQQLLATKEQRLKFLKQQDQRQQQQVAEQEKLKRLKEIAENQEAKLKKVRALKGHVEQKRLSNGKLVEEIEQMNNLFQQKQRELVLAVSKVEELTRQLEMLKNGRIDSHHDNQSAVAELDRLYKELQLRNKLNQEQNAKLQQQRECLNKRNSEVAVMDKRVNELRDRLWKKKAALQQKENLPVSSDGNLPQQAASAPSRVAAVGPYIQSSTMPRMPSRPELLVKPALPDGSLVIQASEGPMKIQTLPNMRSGAASQTKGSKIHPVGPDWSPSNADLFPSQGSASVPQSTGNALDQVDDGEVPLREKEKKVRPFSMFDAVDQSNAPPSFGTLRKNQSSEDILRDAQVANKNVAKVPPPVPTKPKQINLPYFGQTNQPPSDIKPDGSSQQLSTVVPSMGTKPKPAGQQPRVLLSPSIPSVGQDQTLSPGSKQESPPAAAVRPFTPQPSKDTLLPPFRKPQTVAASSIYSMYTQQQAPGKNFQQAVQSALTKTHTRGPHFSSVYGKPVIAAAQNQQQHPENIYSNSQGKPGSPEPETEPVSSVQENHENERIPRPLSPTKLLPFLSNPYRNQSDADLEALRKKLSNAPRPLKKRSSITEPEGPNGPNIQKLLYQRTTIAAMETISVPSYPSKSASVTASSESPVEIQNPYLHVEPEKEVVSLVPESLSPEDVGNASTENSDMPAPSPGLDYEPEGVPDNSPNLQNNPEEPNPEAPHVLDVYLEEYPPYPPPPYPSGEPEGPGEDSVSMRPPEITGQVSLPPGKRTNLRKTGSERIAHGMRVKFNPLALLLDSSLEGEFDLVQRIIYEVDDPSLPNDEGITALHNAVCAGHTEIVKFLVQFGVNVNAADSDGWTPLHCAASCNNVQVCKFLVESGAAVFAMTYSDMQTAADKCEEMEEGYTQCSQFLYGVQEKMGIMNKGVIYALWDYEPQNDDELPMKEGDCMTIIHREDEDEIEWWWARLNDKEGYVPRNLLGLYPRIKPRQRSLA
